Values quoted from earlier work, collected in patent US11103580B2, “Methods and systems for treating cell proliferation disorders” (Immunolight, LLC, priority 2007, dated 2021).
At least one structure is not confirmed: it was looked up by name or label, or the drawing left a doubt.

Assays:
tumors = details: in vivo
[1] = clinical studies, 652 nm light

**Q.** What does the source list for Oc1cccc(-c2c3nc(c(-c4cccc(O)c4)c4ccc([nH]4)c(-c4cccc(O)c4)c4nc(c(-c5cccc(O)c5)c5ccc2[nH]5)CC4)C=C3)c1 [Foscan, Tetra (m-hydroxyphenyl) chlorin]?
**A.** selectivity for tumors compared to normal tissues (tumors): more selectively a photosensitizer in tumors than normal tissues; tissue effect [1]: up to 10 mm
